These are yes or no findings as the source states them, for the method shown. In cells and extracts the contact can be indirect. These calls come from enrichment with a bait or labelling near it, and not all partners need be listed.
T1: E3 ubiquitin-protein ligase Midline-1 (UniProt O15344)
T1 sequence: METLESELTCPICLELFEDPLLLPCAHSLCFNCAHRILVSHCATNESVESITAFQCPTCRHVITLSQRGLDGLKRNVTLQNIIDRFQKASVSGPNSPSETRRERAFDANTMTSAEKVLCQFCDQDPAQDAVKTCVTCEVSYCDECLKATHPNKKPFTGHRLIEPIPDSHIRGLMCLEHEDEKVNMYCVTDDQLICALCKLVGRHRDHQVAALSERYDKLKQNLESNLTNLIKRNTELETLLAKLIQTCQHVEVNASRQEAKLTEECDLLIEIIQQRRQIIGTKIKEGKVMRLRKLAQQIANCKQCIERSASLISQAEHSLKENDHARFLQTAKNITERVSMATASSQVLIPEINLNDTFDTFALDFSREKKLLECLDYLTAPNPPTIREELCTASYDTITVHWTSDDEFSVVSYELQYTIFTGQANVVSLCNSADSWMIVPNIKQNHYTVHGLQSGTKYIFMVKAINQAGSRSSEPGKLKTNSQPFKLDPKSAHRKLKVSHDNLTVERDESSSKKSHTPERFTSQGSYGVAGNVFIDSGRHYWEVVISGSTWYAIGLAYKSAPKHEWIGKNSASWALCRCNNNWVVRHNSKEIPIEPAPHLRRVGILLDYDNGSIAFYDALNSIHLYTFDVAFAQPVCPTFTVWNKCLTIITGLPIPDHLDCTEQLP

B1: Pyrroline-5-carboxylate reductase (protein, UniProt P32322 1-319)
chain: MSVGFIGAGQLAFALAKGFTAAGVLAAHKIMASSPDMDLATVSALRKMGVKLTPHNKETVQHSDVLFLAVKPHIIPFILDEIGADIEDRHIVVSCAAGVTISSIEKKLSAFRPAPRVIRCMTNTPVVVREGATVYATGTHAQVEDGRLMEQLLSSVGFCTEVEEDLIDAVTGLSGSGPAYAFTALDALADGGVKMGLPRRLAVRLGAQALLGAAKMLLHSEQHPGQLKDNVSSPGGATIHALHVLESGGFRSLLINAVEASCIRTRELQSMADQEQVSPAAIKKTILDKVKLDSPAGTALSPSGHTKLLPRSLAPAGKD
B2: RNA-binding protein 14 (protein, UniProt Q96PK6 1-669)
chain: MKIFVGNVDGADTTPEELAALFAPYGTVMSCAVMKQFAFVHMRENAGALRAIEALHGHELRPGRALVVEMSRPRPLNTWKIFVGNVSAACTSQELRSLFERRGRVIECDVVKDYAFVHMEKEADAKAAIAQLNGKEVKGKRINVELSTKGQKKGPGLAVQSGDKTKKPGAGDTAFPGTGGFSATFDYQQAFGNSTGGFDGQARQPTPPFFGRDRSPLRRSPPRASYVAPLTAQPATYRAQPSVSLGAAYRAQPSASLGVGYRTQPMTAQAASYRAQPSVSLGAPYRGQLASPSSQSAAASSLGPYGGAQPSASALSSYGGQAAAASSLNSYGAQGSSLASYGNQPSSYGAQAASSYGVRAAASSYNTQGAASSLGSYGAQAASYGAQSAASSLAYGAQAASYNAQPSASYNAQSAPYAAQQAASYSSQPAAYVAQPATAAAYASQPAAYAAQATTPMAGSYGAQPVVQTQLNSYGAQASMGLSGSYGAQSAAAATGSYGAAAAYGAQPSATLAAPYRTQSSASLAASYAAQQHPQAAASYRGQPGNAYDGAGQPSAAYLSMSQGAVANANSTPPPYERTRLSPPRASYDDPYKKAVAMSKRYGSDRRLAELSDYRRLSESQLSFRRSPTKSSLDYRRLPDAHSDYARYSGSYNDYLRAAQMHSGYQRRM
B3: RNA-binding protein 27 (protein, UniProt Q9P2N5 1-1060)
chain: MLIEDVDALKSWLAKLLEPICDADPSALANYVVALVKKDKPEKELKAFCADQLDVFLQKETSGFVDKLFESLYTKNYLPLLEPVKPEPKPLVQEKEEIKEEVFQEPAEEERDGRKKKYPSPQKTRSESSERRTREKKREDGKWRDYDRYYERNELYREKYDWRRGRSKSRSKSRGLSRSRSRSRGRSKDRDPNRNVEHRERSKFKSERNDLESSYVPVSAPPPNSSEQYSSGAQSIPSTVTVIAPAHHSENTTESWSNYYNNHSSSNSFGRNLPPKRRCRDYDERGFCVLGDLCQFDHGNDPLVVDEVALPSMIPFPPPPPGLPPPPPPGMLMPPMPGPGPGPGPGPGPGPGPGPGPGHSMRLPVPQGHGQPPPSVVLPIPRPPITQSSLINSRDQPGTSAVPNLASVGTRLPPPLPQNLLYTVSERQPMYSREHGAAASERLQLGTPPPLLAARLVPPRNLMGSSIGYHTSVSSPTPLVPDTYEPDGYNPEAPSITSSGRSQYRQFFSRTQTQRPNLIGLTSGDMDVNPRAANIVIQTEPPVPVSINSNITRVVLEPDSRKRAMSGLEGPLTKKPWLGKQGNNNQNKPGFLRKNQYTNTKLEVKKIPQELNNITKLNEHFSKFGTIVNIQVAFKGDPEAALIQYLTNEEARKAISSTEAVLNNRFIRVLWHRENNEQPTLQSSAQLLLQQQQTLSHLSQQHHHLPQHLHQQQVLVAQSAPSTVHGGIQKMMSKPQTSGAYVLNKVPVKHRLGHAGGNQSDASHLLNQSGGAGEDCQIFSTPGHPKMIYSSSNLKTPSKLCSGSKSHDVQEVLKKKQEAMKLQQDMRKKRQEVLEKQIECQKMLISKLEKNKNMKPEERANIMKTLKELGEKISQLKDELKTSSAVSTPSKVKTKTEAQKELLDTELDLHKRLSSGEDTTELRKKLSQLQVEAARLGILPVGRGKTMSSQGRGRGRGRGGRGRGSLNHMVVDHRPKALTVGGFIEEEKEDLLQHFSTANQGPKFKDRRLQISWHKPKVPSISTETEEEEVKEEETETSDLFLPDDDDEDEDEYESRSWRR
B4: RNA-binding protein 28 (protein, UniProt Q9NW13 1-759)
chain: MAGLTLFVGRLPPSARSEQLEELFSQVGPVKQCFVVTEKGSKACRGFGYVTFSMLEDVQRALKEITTFEGCKINVTVAKKKLRNKTKEKGKNENSECPKKEPKAKKAKVADKKARLIIRNLSFKCSEDDLKTVFAQFGAVLEVNIPRKPDGKMRGFGFVQFKNLLEAGKALKGMNMKEIKGRTVAVDWAVAKDKYKDTQSVSAIGEEKSHESKHQESVKKKGREEEDMEEEENDDDDDDDDEEDGVFDDEDEEEENIESKVTKPVQIQKRAVKRPAPAKSSDHSEEDSDLEESDSIDDGEELAQSDTSTEEQEDKAVQVSNKKKRKLPSDVNEGKTVFIRNLSFDSEEEELGELLQQFGELKYVRIVLHPDTEHSKGCAFAQFMTQEAAQKCLLAASPENEAGGLKLDGRQLKVDLAVTRDEAAKLQTTKVKKPTGTRNLYLAREGLIRAGTKAAEGVSAADMAKRERFELLKHQKLKDQNIFVSRTRLCLHNLPKAVDDKQLRKLLLSATSGEKGVRIKECRVMRDLKGVHGNMKGQSLGYAFAEFQEHEHALKALRLINNNPEIFGPLKRPIVEFSLEDRRKLKMKELRIQRSLQKMRSKPATGEPQKGQPEPAKDQQQKAAQHHTEEQSKVPPEQKRKAGSTSWTGFQTKAEVEQVELPDGKKRRKVLALPSHRGPKIRLRDKGKVKPVHPKKPKPQINQWKQEKQQLSSEQVSRKKAKGNKTETRFNQLVEQYKQKLLGPSKGAPLAKRSKWFDS
B5: RNA 3-terminal phosphate cyclase-like protein (protein, UniProt Q9Y2P8 1-373)
chain: MATQAHSLSYAGCNFLRQRLVLSTLSGRPVKIRKIRARDDNPGLRDFEASFIRLLDKITNGSRIEINQTGTTLYYQPGLLYGGSVEHDCSVLRGIGYYLESLLCLAPFMKHPLKIVLRGVTNDQVDPSVDVLKATALPLLKQFGIDGESFELKIVRRGMPPGGGGEVVFSCPVRKVLKPIQLTDPGKIKRIRGMAYSVRVSPQMANRIVDSARSILNKFIPDIYIYTDHMKGVNSGKSPGFGLSLVAETTSGTFLSAELASNPQGQGAAVLPEDLGRNCARLLLEEIYRGGCVDSTNQSLALLLMTLGQQDVSKVLLGPLSPYTIEFLRHLKSFFQIMFKIETKPCGEELKGGDKVLMTCVGIGFSNLSKTLK
B6: Reticulocalbin-2 (protein, UniProt Q14257 23-317)
chain: GKAEELHYPLGERRSDYDREALLGVQEDVDEYVKLGHEEQQKRLQAIIKKIDLDSDGFLTESELSSWIQMSFKHYAMQEAKQQFVEYDKNSDDTVTWDEYNIQMYDRVIDFDENTALDDAEEESFRKLHLKDKKRFEKANQDSGPGLSLEEFIAFEHPEEVDYMTEFVIQEALEEHDKNGDGFVSLEEFLGDYRWDPTANEDPEWILVEKDRFVNDYDKDNDGRLDPQELLPWVVPNNQGIAQEEALHLIDEMDLNGDKKLSEEEILENPDLFLTSEATDYGRQLHDDYFYHDEL
B7: Serine/threonine-protein kinase RIO1 (protein, UniProt Q9BRS2 1-568)
chain: MDYRRLLMSRVVPGQFDDADSSDSENRDLKTVKEKDDILFEDLQDNVNENGEGEIEDEEEEGYDDDDDDWDWDEGVGKLAKGYVWNGGSNPQANRQTSDSSSAKMSTPADKVLRKFENKINLDKLNVTDSVINKVTEKSRQKEADMYRIKDKADRATVEQVLDPRTRMILFKMLTRGIITEINGCISTGKEANVYHASTANGESRAIKIYKTSILVFKDRDKYVSGEFRFRHGYCKGNPRKMVKTWAEKEMRNLIRLNTAEIPCPEPIMLRSHVLVMSFIGKDDMPAPLLKNVQLSESKARELYLQVIQYMRRMYQDARLVHADLSEFNMLYHGGGVYIIDVSQSVEHDHPHALEFLRKDCANVNDFFMRHSVAVMTVRELFEFVTDPSITHENMDAYLSKAMEIASQRTKEERSSQDHVDEEVFKRAYIPRTLNEVKNYERDMDIIMKLKEEDMAMNAQQDNILYQTVTGLKKDLSGVQKVPALLENQVEERTCSDSEDIGSSECSDTDSEEQGDHARPKKHTTDPDIDKKERKKMVKEAQREKRKNKIPKHVKKRKEKTAKTKKGK
B8: RING finger protein 219 (protein, UniProt Q5W0B1 1-726)
chain: MAQTVQNVTLSLTLPITCHICLGKVRQPVICINNHVFCSICIDLWLKNNSQCPACRVPITPENPCKEIIGGTSESEPMLSHTVRKHLRKTRLELLHKEYEDEIDCLQKEVEELKSKNLSLESQIKTILDPLTLVQGNQNEDKHLVTDNPSKINPETVAEWKKKLRTANEIYEKVKDDVDKLKEANKKLKLENGGLVRENLRLKAEVDNRSPQKFGRFAVAALQSKVEQYERETNRLKKALERSDKYIEELESQVAQLKNSSEEKEAMNSICQTALSADGKGSKGSEEDVVSKNQGDSARKQPGSSTSSSSHLAKPSSSRLCDTSSARQESTSKADLNCSKNKDLYQEQVEVMLDVTDTSMDTYLEREWGNKPSDCVPYKDEELYDLPAPCTPLSLSCLQLSTPENRESSVVQAGGSKKHSNHLRKLVFDDFCDSSNVSNKDSSEDDISRSENEKKSECFSSPKTGFWDCCSTSYAQNLDFESSEGNTIANSVGEISSKLSEKSGLCLSKRLNSIRSFEMNRTRTSSEASMDAAYLDKISELDSMMSESDNSKSPCNNGFKSLDLDGLSKSSQGSEFLEEPDKLEEKTELNLSKGSLTNDQLENGSEWKPTSFFLLSPSDQEMNEDFSLHSSSCPVTNEIKPPSCLFQTEFSQGILLSSSHRLFEDQRFGSSLFKMSSEMHSLHNHLQSPWSTSFVPEKRNKNVNQSTKRKIQSSLSSASPSKATKS

These binders were tested against T1, E3 ubiquitin-protein ligase Midline-1 (assay: affinity purification with mass spectrometry; MID1-FLAG expressed in HEK293T, lysate in TKM buffer (20 mM Tris pH 7.4, 100 mM KCl, 5 mM MgCl2, 0.5% NP40, 1 mM DTT), anti-FLAG M1 agarose overnight at 4 °C, 6 washes; untransfected cells as control; Q-Exactive, MaxQuant, 1% FDR).

Binder | binding
B1 | binds
B2 | binds
B3 | binds
B4 | binds
B5 | binds
B6 | binds
B7 | binds
B8 | binds

Source: article PMC5841321
